Assay results published in the supplement of paper PMC7125110.
± gives the standard error. Many entries were measured with a wide error.

B1: glmS ribozyme (parent)
chain: AUAAAAGCGCCAGAACUACAGAAAUGUAGUUGACGAGGAGGAGGUUUAUCGAAUUUUCGGCGGAUGCCUCCAAA

Variants of: B1
Test: KM; higher = weaker cofactor use; RNA array
Conditions: with glucosamine-6-phosphate
How it was run: (§1)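 kobs was derived by fitting per-tile medians to one- or two-exponential decays after normalising signals to baseline and to non-cleaving reference variants. Those signals came from barcoded ribozyme variants transcribed in situ by E. coli RNA polymerase on sequenced MiSeq chips, followed through a hybridised Cy3 probe at 37 °C and imaged over ~14 h. Glucosamine-6-phosphate (40 μM to 10 mM) in HEPES/KCl/Mg(OAc)2 buffer was flowed in. Weighted Michaelis–Menten fits across concentrations then gave kcat and KM.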

AUAAAAGCGCCAGAGCUACAGAAAUGUAGUUGACGAGGAGGAGGUUUAUCGAAUUUUCGGCGGGUGCCUCCAAA [A15G A64G] was tested. Which KM did it give?
The KM was 477 ± 320 µM.

AUAAAAGCGCCAGAUCUACAGAAAUGUAGUUCACGAGGAGGAGGUUUAUCGAAUUUUCGGCGGAUGCCUCCAAA [A15U G32C] was tested. Which KM did it give?
Its KM is 2550 ± 370 µM.

How did the KM turn out when AUAAAAGCGCCAGACCUACAGAAAUGUAGUUGACGAGGAGGAGGUUUAUCGAAUUUUCGGUGGAUGCCUCCAAA [A15C C61U] was run?
Its KM is 5200 ± 4900 µM.

With AUAAAAGCGCCAGACCUACAGAAAUGUAGUUGACGAGGAGGAGUUUUAUCGAAUUUUCGGCGGAUGCCUCCAAA [A15C G44U] as the variant, how does the KM read?
The KM was 924 ± 540 µM.

With AUAAAAGCGCCAGAGCUACAGAAAUGUAGUUGACGAGGAGGAGGUCUAUCGAAUUUUCGGCGGAUGCCUCCAAA [A15G U46C] as the variant, how does the KM read?
Its KM is 1440 ± 680 µM.

With AUAAAAGCGCCAGUACUACAGAAAUGUAGUUGACGAGGAGGAGGUUUAUCGAAUUUUAGGCGGAUGCCUCCAAA [A14U C58A] as the variant, how does the KM read?
The KM was 2220 ± 300 µM.

With AUAAAAGCGCCAGAAGUACAGAAAUGUAGUUGACGUGGAGGAGGUUUAUGGAAUUUUCGGCGGAUGCGUCCAAA [C16G A36U C50G C68G] as the variant, how does the KM read?
Its KM is 90.5 ± 86 µM.

AUAAAAGCGCCAGCACUACAGAAAUGUAGUUGACGAGGAGGAGAUUUAUCGAAUUUUCGGCGGAUGCCUCCAAA [A14C G44A] was tested. Which KM did it give?
Its KM is 197000 ± 56000 µM.

How did the KM turn out when AUAAAAGCGCCAGGACUACAGAAAUGUAGUUCACGAGGAGGAGGUUUAUCGAUUUUUCGGCGGAUGCCUCCAAA [A14G G32C A53U] was run?
The KM was 5490 ± 3500 µM.

Which KM does the source give for AUAAAAGCGCCAGAUCUACAGAAAUGUAUUUGACGAGGAGGAGGUUUAUCGAAUUUUCGGCGGAUGCCUCCAAA [A15U G29U] here?
The KM was 1440 ± 930 µM.

How did the KM turn out when AUAAAAGCGCCAGAGCUACAGAAAUGUAGUUGACGAGGAGGAGGUUUAUCGAAUUCUCGGCGGAUGCCUCCAAA [A15G U56C] was run?
The KM was 3070 ± 1600 µM.

AUAAAAGCGCCAGAAAUACAGAAAUGUAGUUGACGAGGAGGAGGUUUAUCGAAUUUUCGGCGGACGCCUCCAAA [C16A U65C] was tested. Which KM did it give?
Its KM is 654 ± 8.5 µM.

How did the KM turn out when AUAAAAGCGCCAGAAAUACAGAAAUGUAGUUGACGAGGAGGAGGUUUAUCGAAUGUUCGGCGGAUGCCUCCAAA [C16A U55G] was run?
Its KM is 4520 ± 2400 µM.

How did the KM turn out when AUAAAAGCGCCAGACCUACAGAAAUGUAGUUGACGAGGAGGAGGUCUAUCGAAUUUUCGGCGGAUGCCUCCAAA [A15C U46C] was run?
Its KM is 1330 ± 520 µM.

With AUAAAAGCGCCAGAUCUACAGAAAUGUAGUUGACGAGAAGGAGGUUUAUCGAAUUUUCGGCGGAUGAUUCCAAA [A15U G38A C67A C68U] as the variant, how does the KM read?
Its KM is 928 ± 690 µM.

For AUAAAAGCGCCAGAUCUACAGAAAUGUAGUUGACGAGGAGGAGGUUUAUCGAAUUUUCGCCGGAUGCCUCCAAA [A15U G60C], which KM is on record?
Its KM is 59.9 ± 33 µM.

With AUAAAAGCGCCAGAUCUACAGAAAUGUAGUUGACGAGGAGGAGGUUUCUCGAAUUUUCGGCGGAUGCCUCCAAA [A15U A48C] as the variant, how does the KM read?
Its KM is 1190 ± 910 µM.

AUAAAAGCGCCAGGACUACAGAAAUGUAGUUGACGAGGAGGAGGUUUAUCGAAUUUUCGGCGUAUGCCUCCAAA [A14G G63U] was tested. Which KM did it give?
Its KM is 1390 ± 800 µM.

Which KM does the source give for AUAAAAGCGCCAGAUCUACAGAAAUGUAGUGGACGAGGAGGAGGUUUAUCGAAUUUUCGGCGGAUGCCUCUAAA [A15U U31G C71U] here?
The KM was 844 ± 430 µM.

For AUAAAAGCGCCAGGACUACAGAAAUGUAGUUGACGAGGAGGAGGCUUAUCGAAUUUUCGGCGGAUGCCUCCAAA [A14G U45C], which KM is on record?
Its KM is 772 ± 420 µM.

AUAAAAGCGCCAGACAUACAGAAAUGUAGUUGACGAGGAGGAGGUUUAUCGAAUUUUCGGCGGAUGCCUCCAAA [A15C C16A] was tested. Which KM did it give?
Its KM is 2030 ± 1100 µM.

How did the KM turn out when AUAAAAGCGCCAGGACUACAGAAAUGUAGUUGACGAGGAGGAGGUCUAUCGAAUUUUCGGCGGAUGCCUCCAAA [A14G U46C] was run?
Its KM is 579 ± 390 µM.

How did the KM turn out when AUAAAAGCGCCAGGACUACAGAAAUGUAGUUGACGAGGAGGAGGUUUAUCGAAUUUUCGGCGGAUGCCUCGAAA [A14G C71G] was run?
The KM was 55.3 ± 55 µM.

For AUAAAAGCGCCAGUACUACAGAAAUGUAGUGGACGAGGCGGAGGUUUAUCGAAUUUUCGGCGGAUGCCUCCAAA [A14U U31G A39C], which KM is on record?
Its KM is 4360 ± 1700 µM.

Which KM does the source give for AUAAAAGCGCCAGGACUACAGAAAUGUAGUUGACGAGGAGGAGAUUUAUCGAAUUUUCGGCGGAUGCCUCCAAA [A14G G44A] here?
The KM was 3640 ± 2600 µM.

AUAAAAGCGCCAGGACUACAGAAAUGUAGUUGACGAGGACGAGGUUUAUCGAAUUUUCGGCGGAUGCCUCCAAA [A14G G40C] was tested. Which KM did it give?
Its KM is 2750 ± 1400 µM.

How did the KM turn out when AUAAAAGCGCCAGACCUACAGAAAUGUAGUUGACGAGGAGCAGGUUUAUCGAAUUUUCGGCGGAUGCCUCCAAA [A15C G41C] was run?
The KM was 1850 ± 570 µM.

Which KM does the source give for AUAAAAGCGCCAGACAUACAGAAAUGUAGUUGACGAGGAGGAGGUUUAUCGAAUUUUCGGCUGAUGCCUCCAAA [A15C C16A G62U] here?
Its KM is 657 ± 420 µM.

How did the KM turn out when AUAAAAGCGCCAGACCUACAGAAAUGUAGUUGACGAGGAGGAGGUUUAUCGAAUUCUCGGCGGAUGCCUCCAAA [A15C U56C] was run?
Its KM is 2470 ± 690 µM.

Variants of: B1
Test: self-cleavage kobs at 2500 uM GlcN6P; higher = faster cleavage; RNA array
Conditions: with glucosamine-6-phosphate
How it was run: as §1

For AUAAAAGCGCCAGACCUACAGAAAUGUAGUUGACGAGGAGGAGUUUUAUCGAAUUUUCGGCGGAUGCCUCCAAA [A15C G44U], which “self-cleavage kobs at 2500 uM GlcN6P” value is on record?
The value was 3.33e-05 ± 1.7e-05 s⁻¹.

With AUAAAAGCGCCAGAUCUACAGAAAUGUAGUUGACGAGGAGGAGGUUUCUCGAAUUUUCGGCGGAUGCCUCCAAA [A15U A48C] as the variant, how does the “self-cleavage kobs at 2500 uM GlcN6P” value read?
Its value is 1.79e-05 ± 1.7e-05 s⁻¹.

For AUAAAAGCGCCAGACCUACAGAAAUGUAGUUGACGAGGAGCAGGUUUAUCGAAUUUUCGGCGGAUGCCUCCAAA [A15C G41C], which “self-cleavage kobs at 2500 uM GlcN6P” value is on record?
The value was 1.96e-05 ± 1.1e-05 s⁻¹.

Variants of: B1
Test: self-cleavage kobs at 10000 uM GlcN6P; higher = faster cleavage; RNA array
Conditions: with glucosamine-6-phosphate
How it was run: as §1

Which “self-cleavage kobs at 10000 uM GlcN6P” value does the source give for AUAAAAGCGCCAGACCUACAGAAAUGUAGUUGACGAGGAGGAGUUUUAUCGAAUUUUCGGCGGAUGCCUCCAAA [A15C G44U] here?
The value was 3.44e-05 ± 2.1e-05 s⁻¹.

AUAAAAGCGCCAGAAAUACAGAAAUGUAGUUGACGAGGAGGAGGUUUAUCGAAUUUUCGGCGGACGCCUCCAAA [C16A U65C] was tested. Which “self-cleavage kobs at 10000 uM GlcN6P” value did it give?
The value was 2.27e-05 ± 1.6e-05 s⁻¹.

For AUAAAAGCGCCAGAUCUACAGAAAUGUAGUUGACGAGGAGGAGGUUUCUCGAAUUUUCGGCGGAUGCCUCCAAA [A15U A48C], which “self-cleavage kobs at 10000 uM GlcN6P” value is on record?
Its value is 2.16e-05 ± 1.4e-05 s⁻¹.

Variants of: B1
Test: self-cleavage kobs at 160 uM GlcN6P; higher = faster cleavage; RNA array
Conditions: with glucosamine-6-phosphate
How it was run: as §1

How did the “self-cleavage kobs at 160 uM GlcN6P” value turn out when AUAAAAGCGCCAGACCUACAGAAAUGUAGUUGACGAGGAGGAGGUCUAUCGAAUUUUCGGCGGAUGCCUCCAAA [A15C U46C] was run?
The value was 2.26e-05 ± 1.3e-05 s⁻¹.

Variants of: B1
Test: self-cleavage kobs at 40 uM GlcN6P; higher = faster cleavage; RNA array
Conditions: with glucosamine-6-phosphate
How it was run: as §1

For AUAAAAGCGCCAGACCUACAGAAAUGUAGUUGACGAGGAGGAGGUUUAUCGAAUUCUCGGCGGAUGCCUCCAAA [A15C U56C], which “self-cleavage kobs at 40 uM GlcN6P” value is on record?
Its value is 2.17e-05 ± 1.2e-05 s⁻¹.
